Drawing on patent publication EP1785721A1, “Microbial, viral and mammalian susceptibility to agents that affect cell growth and metabolism, and mode of action of compounds” (Stratos Bio Ltd., priority 2005, dated 2007), this text covers activity for one substance.

The nature of the data set: Activity (international units) of the antibiotics used.

In turn, Polymyxin B sulphate returned an activity of 846.4 iU/ml.
